Experimental data reported in patent US9663478B2, “Benzotriazine oxides as drugs targeting Mycobacterium tuberculosis” (priority 2011, dated 2017).
≈ marks a conversion by molar mass, not a printed value.

Key:
Mtb H37Rv [1] = assay: TB MIC - SRI, resazurin-based microplate assay; type: cell-based; conditions: Mycobacterium tuberculosis, Tables 1-4 and text
Mtb H37Rv [2] = assay: TB MIC - ITR (UIC), Institute for Tuberculosis Research; type: cell-based; conditions: Mycobacterium tuberculosis, Tables 1-4

**Q.** How did the MIC (Mtb H37Rv [1]) turn out when `O=C1OCCN1/N=C/c1ccc([N+](=O)[O-])o1` [Furazolidone, reference compound] was run?
**A.** The MIC was 31 µg/mL (≈ 138 µM).

**Q.** And the MIC (Mtb H37Rv [2])?
**A.** The MIC was 30 µg/mL (≈ 133 µM).
